Data on 40 sequences can be found in publication PMC7862700.

This is one part of the list. The source does not settle which construct or isoform was used.

This experiment deals with T1, ETS1 (UniProt P14921).
T1 sequence: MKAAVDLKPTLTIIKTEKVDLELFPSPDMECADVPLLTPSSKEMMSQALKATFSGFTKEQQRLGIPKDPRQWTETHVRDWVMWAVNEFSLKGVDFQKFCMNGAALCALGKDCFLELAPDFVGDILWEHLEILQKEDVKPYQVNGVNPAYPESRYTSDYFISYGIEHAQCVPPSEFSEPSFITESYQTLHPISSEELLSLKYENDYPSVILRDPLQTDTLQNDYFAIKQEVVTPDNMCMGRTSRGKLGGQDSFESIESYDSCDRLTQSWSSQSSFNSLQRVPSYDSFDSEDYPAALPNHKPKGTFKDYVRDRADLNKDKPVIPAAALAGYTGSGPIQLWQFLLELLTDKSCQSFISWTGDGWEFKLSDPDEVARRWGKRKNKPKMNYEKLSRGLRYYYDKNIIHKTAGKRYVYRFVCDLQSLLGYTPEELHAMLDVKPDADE
Description: DAPPL (digital affinity profiling via proximity ligation, sequencing). To be noted: 10 mM Tris-HCl pH 7.5, 50 mM NaCl, 1 mM DTT, 4% glycerol, room temperature, 30 min; GST-TFs on glutathione beads, 16-mer random dsDNA library, 0.1% …; high values mean tight binding; double strand, one strand shown; scale: fold enrichment (6-mer frequency, TF over GST control).
Take GGTTCC: the binding signal was 1.32.

For the sequence GGTAAA, the binding signal is 1.01. Under ATAGAC stands 0.989; under TTATAA, 1.27; under CACCTG, 0.984. Under TTCATG stands 1.32; under CTAGCC, 1.07; under ATTCGC, 1.23. The figure for TATATC is 1.68; for GTTCCC it is 1.22; for CAAACG it is 1. Take GTAATA: the binding signal is 1.21.

Sequence ATTGTA had a binding signal of 1.28. The figure for CTATCG is 1.09; for TAAGTA it is 1.16; for AAGTTC it is 1.47. In turn, CCACAA came in with a binding signal of 1.23.

For TTCCCA, the binding signal was 1.21.

AAATGC showed a binding signal of 1.28. The figure for TGGCCC is 1.13; for GTTATC it is 1.09. The figure for GTAATC is 1.13; for GCCCTA it is 1.18; for TGCGAC it is 1.12.

In the case of TTTCCG, the binding signal turned out to be 3.4. On to ATGCCT, for which the binding signal came to 1.29. For the sequence GGCTAC, the binding signal stood at 1.26. Under ATGCCC stands 1.4; under TAAAAA, 1.46.

In turn, GCACGC returned a binding signal of 1.15.

TGTGAT: the binding signal was found to be 1.05. Under ACATAA stands 1.15.

TCCAAC returned a binding signal of 1.22. Under TATGAC stands 1.27; under AAACCT, 1.08. The figure for GCGAAT is 1.01; for TTCTAA it is 1.19; for AATGCG it is 1.25. Under TCCGCA stands 2.25. On to ATTCAC, for which the binding signal stood at 1.28.
